Experiment [1] has as its target T1, GFP-tagged CSF1R immunoprecipitated from HEK293T cells (UniProt P09581).
T1 sequence: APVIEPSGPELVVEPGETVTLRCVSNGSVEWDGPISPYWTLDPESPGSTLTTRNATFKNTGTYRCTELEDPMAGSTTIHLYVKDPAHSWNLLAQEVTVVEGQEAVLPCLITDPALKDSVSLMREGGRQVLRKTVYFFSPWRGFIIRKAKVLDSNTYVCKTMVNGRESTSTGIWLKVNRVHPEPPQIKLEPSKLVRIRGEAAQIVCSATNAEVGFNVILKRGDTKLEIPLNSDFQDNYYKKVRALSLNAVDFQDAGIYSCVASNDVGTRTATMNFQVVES
In words: pull-down; as the pull-down of parvalbumin with immunoprecipitated CSF1R from HEK293T cells, with parvalbumin blocker (1 μg/ml) added; only the binder purified.

Sequences of proteins named here, by UniProt entry; tags and fusion partners are left off.
UniProt P32848: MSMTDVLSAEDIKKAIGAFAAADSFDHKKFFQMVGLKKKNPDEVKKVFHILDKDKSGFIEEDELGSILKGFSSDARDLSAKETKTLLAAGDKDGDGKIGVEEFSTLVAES

In experiment [2] the target is T1, GFP-tagged CSF1R immunoprecipitated from HEK293T cells. In words: pull-down; CSF1R immunoprecipitated from lysate of transfected cells on protein A/G agarose beads, washed with PBS, parvalbumin (1 ug/ml) added for 2 h, washed, immunoblot; only the binder purified. On the technique in general: Immunoblotting shows a protein as a band on a membrane.
Experiment [3] has as its target parvalbumin (recombinant protein) (UniProt P32848). The experiment is described as follows: pull-down; competition: parvalbumin blocker peptide (1 μg/ml) added with parvalbumin to immunoprecipitated CSF1R; blocker against parvalbumin; both purified.

The values that follow come from PMC9177846, “Targeting parvalbumin promotes M2 macrophage polarization and energy expenditure in mice” (Nature Communications, 2022).

No constants are given. Whether binding was seen depends on the method and setting. For part of these data: In cells and extracts the contact can be indirect. Some binding calls cover weakened binding; strength is not graded here. For part of these data: Sequences can lack the tags named with a protein.

For “parvalbumin (recombinant protein) (from UniProt P32848 1-110)”, the binding entry in experiment [1] and in experiment [2] was “binds” each time.

In the case of MREGGRQVLRKTVY [parvalbumin blocker (M141-Y154 region of CSF1R)], the binding result in experiment [3] is recorded as “binds”.
